{"source": "PubChem BioAssay", "note": "“And” between values parts separate entries of the source, which are not always exact repeats. Equal entries are not always repeated. Some of the results follow. Shown are side measurements of this screen, not its main read-out; they come without a call."}
{"assay": "PubChem AID 1586", "details": "yeast two-hybrid polyglutamine protein interaction, reporter readout; measured here: averaged growth delta OD"}
{"smiles": "CO[C@H]1[C@H](O)[C@@H](O[C@H]2CC[C@]3(C=O)C4CC[C@]5(C)[C@@H](C6=CC(=O)OC6)CC[C@]5(O)C4CC[C@@H]3C2)O[C@@H](C)[C@@H]1O", "note": "(stereo partly specified)", "signal change (36 h minus 0 h)": 0.117}
{"smiles": "COc1ccc(C[C@H]2NC[C@H](O)[C@H]2OC(C)=O)cc1", "signal change (36 h minus 0 h)": 0.271}
{"smiles": "CC(=O)O[C@H]1C[C@H](O[C@H]2[C@@H](O)C[C@H](O[C@H]3[C@@H](O)C[C@H](O[C@H]4CC[C@@]5(C)C(CCC6C5C[C@@H](O)[C@]5(C)[C@@H](C7=CC(=O)OC7)CC[C@]65O)C4)O[C@@H]3C)O[C@@H]2C)O[C@H](C)[C@H]1O[C@@H]1O[C@H](CO)[C@@H](O)[C@H](O)[C@H]1O", "note": "(stereo partly specified)", "signal change (36 h minus 0 h)": 0.0715}
{"smiles": "NCC(O)c1ccc(O)cc1", "note": "(stereo unspecified)", "signal change (36 h minus 0 h)": 0.164}
{"smiles": "C[C@@H]([C@H](O)c1ccccc1)N(C)C", "signal change (36 h minus 0 h)": 0.134}
{"smiles": "CCCC(C)(COC(N)=O)COC(=O)NC(C)C", "note": "(stereo unspecified)", "signal change (36 h minus 0 h)": 0.11}
{"smiles": "Cc1cc2c(C(C)C)c(O)c(O)c(C=O)c2c(O)c1-c1c(C)cc2c(C(C)C)c(O)c(O)c(C=O)c2c1O", "signal change (36 h minus 0 h)": 0.165}
{"smiles": "CCC1(CC)C(=O)C=CNC1=O", "signal change (36 h minus 0 h)": "0.153 and 0.234"}
{"smiles": "C[C@]12CCC3C(CC[C@]4(O)C[C@@H](O)CC[C@]34C=O)[C@@]1(O)CCC2C1=CC(=O)OC1", "note": "(stereo partly specified)", "signal change (36 h minus 0 h)": 0.15}
{"smiles": "C[N+](C)(C)CC(=O)[O-]", "signal change (36 h minus 0 h)": 0.431}
{"smiles": "C/C=C(\\C)C(=O)O[C@H]1C[C@@H](OC(C)=O)[C@@]2(C(=O)OC)CO[C@@H]3C2[C@]12CO[C@](O)(C(=O)OC)[C@H]2[C@](C)(C12O[C@@]1(C)[C@H]1C[C@@H]2OC2OC=C[C@@]21O)[C@@H]3O", "note": "(stereo partly specified)", "signal change (36 h minus 0 h)": 0.0945}
{"smiles": "CC[C@H]1CN2CCC1C[C@@H]2[C@@H](O)c1ccnc2ccc(OC)cc12", "note": "(stereo partly specified)", "signal change (36 h minus 0 h)": 0.0711}
{"smiles": "O=C(O)CCCc1ccc(N(CCCl)CCCl)cc1", "signal change (36 h minus 0 h)": 0.244}
{"smiles": "NC(=O)CN1CCCC1=O", "signal change (36 h minus 0 h)": 0.173}
{"smiles": "CCC1(c2ccccc2)C(=O)NC(=O)NC1=O", "signal change (36 h minus 0 h)": 0.258}
{"smiles": "CCN1C[C@@]2(COC)C3[C@@H](OC)[C@H]4[C@@H]1[C@]3(C(OC)C[C@H]2O)C1C[C@@]2(O)[C@H](OC(=O)c3ccccc3)C1[C@]4(OC(C)=O)[C@@H](O)[C@@H]2OC", "note": "(stereo partly specified)", "signal change (36 h minus 0 h)": 0.131}
{"smiles": "CC(C)CC(NC(=O)C(Cc1ccccc1)NC(=O)CNC(=O)CNC(=O)C(N)Cc1ccc(O)cc1)C(=O)O", "note": "(stereo unspecified)", "signal change (36 h minus 0 h)": 0.273}
{"smiles": "OC1CCCCC1N1CCC(c2ccccc2)CC1", "note": "(stereo unspecified)", "signal change (36 h minus 0 h)": 0.204}
{"smiles": "C=C[C@H]1CN2CC[C@H]1C[C@@H]2[C@@H](OC(=O)OCC)c1ccnc2ccc(OC)cc12", "signal change (36 h minus 0 h)": -0.0209}
{"smiles": "CN1CC[C@]23c4c5ccc(O)c4O[C@H]2C(=O)CCC3[C@H]1C5", "note": "(stereo partly specified)", "signal change (36 h minus 0 h)": 0.468}
{"smiles": "CC[C@@H]1/C=C/C=C/C[C@H](C)[C@@H](O)[C@](C)(O)C(=O)[C@H](C)[C@@H](O)[C@H](C)C(=O)[C@H](C)[C@@H](O)[C@H](C)/C=C/C(=O)O[C@H]2[C@@H](C)[C@@H](CC1)O[C@@]1(CC[C@@H](C)[C@@H](C[C@H](C)O)O1)[C@@H]2C", "signal change (36 h minus 0 h)": -0.217}
{"smiles": "CC[C@@]1(O)C[C@H](O[C@H]2C[C@H](N(C)C)[C@H](O)[C@H](C)O2)c2c(cc3c(c2O)C(=O)c2c(O)cccc2C3=O)[C@H]1C(=O)OC", "signal change (36 h minus 0 h)": 0.104}
{"smiles": "Clc1ccc(CSC(Cn2ccnc2)c2ccc(Cl)cc2Cl)cc1", "note": "(stereo unspecified)", "signal change (36 h minus 0 h)": 0.0567}
{"smiles": "CN1C(=O)C(O)N=C(c2ccccc2)c2cc(Cl)ccc21", "note": "(stereo unspecified)", "signal change (36 h minus 0 h)": 0.289}
{"smiles": "C[C@H]1C(=O)O[C@@H]2CCN3CC=C(COC(=O)[C@](C)(O)[C@]1(C)O)[C@H]23", "signal change (36 h minus 0 h)": 0.16}
{"smiles": "CCC(C)C(=O)O[C@H]1[C@H](O)C2C(CN3CC(C)CCC3[C@@]2(C)O)C2C[C@]34O[C@]5(O)C(OC(=O)C(C)(O)C(C)O)CC[C@@]3(C)C5C(OC(C)=O)[C@@H](OC(C)=O)C4[C@@]21O", "note": "(stereo partly specified)", "signal change (36 h minus 0 h)": 0.135}
{"smiles": "CC1CC[C@@]2(NC1)OC1CC3C4CC=C5CC(O)CCC5(C)C4CCC3(C)C1[C@@H]2C", "note": "(stereo partly specified)", "signal change (36 h minus 0 h)": 0.0693}
{"smiles": "Clc1ccc(C(OCCN2CCCCC2)c2ccccc2)cc1", "note": "(stereo unspecified)", "signal change (36 h minus 0 h)": 0.107}
{"smiles": "N#C/C(=C\\c1ccc(O)cc1)C(=O)O", "signal change (36 h minus 0 h)": 0.183}
{"smiles": "CN1CC(CNC(=O)OCc2ccccc2)CC2c3cccc4c3c(cn4C)CC21", "note": "(stereo unspecified)", "signal change (36 h minus 0 h)": 0.124}
{"smiles": "CCOC(=O)C1(c2ccccc2)CCN(C)CC1", "signal change (36 h minus 0 h)": 0.495}
{"smiles": "O=C1Nc2ccc(Cl)cc2C(c2ccccc2)=NC1O", "note": "(stereo unspecified)", "signal change (36 h minus 0 h)": 0.296}
{"smiles": "CNC(C)Cc1ccccc1", "note": "(stereo unspecified)", "signal change (36 h minus 0 h)": 0.278}
{"smiles": "CC(C)[N+](C)(CCC(C(N)=O)(c1ccccc1)c1ccccc1)C(C)C", "signal change (36 h minus 0 h)": 0.0793}
{"smiles": "CCCC(C)C1(CC)C(=O)NC(=O)NC1=O", "note": "(stereo unspecified)", "signal change (36 h minus 0 h)": 0.459}
{"smiles": "NCCC(O)C(=O)N[C@@H]1C[C@H](N)[C@@H](O[C@H]2O[C@H](CN)[C@@H](O)[C@H](O)[C@H]2N)[C@H](OC2O[C@H](CO)[C@H](O)[C@H]2O)[C@H]1O", "note": "(stereo partly specified)", "signal change (36 h minus 0 h)": 0.123}
